# According to the supplement of paper PMC3334620:
# Whole data set: some 33,000 sequences, median “E-score (-0.5 to 0.5)” near -8e-05, cut for the highest 2% near 0.23. Some of the results follow.
# Biological target: T1, Nrg2 (UniProt P38082)
# T1 sequence: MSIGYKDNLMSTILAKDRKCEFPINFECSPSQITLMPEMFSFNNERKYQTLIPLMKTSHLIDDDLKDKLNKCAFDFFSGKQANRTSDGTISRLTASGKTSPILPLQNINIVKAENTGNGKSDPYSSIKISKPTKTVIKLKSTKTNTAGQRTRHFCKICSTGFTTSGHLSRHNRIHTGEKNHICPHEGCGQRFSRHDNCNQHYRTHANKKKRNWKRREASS
# Test: PBM E-score (8-mer binding enrichment) (E-score (-0.5 to 0.5)); higher = stronger / more preferred TF binding
# Details: protein concentration: 100 nM; construct: GST-full length
# In short: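 Universal all-10-mer Agilent arrays, fresh or stripped once, were converted to double-stranded form by primer extension. GST-tagged yeast transcription factors from PURExpress in vitro transcription/translation, full-length or DNA-binding domain only, were applied at about 100-200 nM and detected with fluorescent anti-GST. After masliner normalisation, the Universal PBM Analysis Suite scored each ungapped eight-base word together with its reverse complement by E-score.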
row,Sequence,PBM E-score
1,AGGTTGCA,0.164
2,CCAGGAGG,-0.0731
3,CAGGCCAG,-0.0376
4,AAATCGAA,0.111
5,CAGACAAG,0.0707
6,GATGGTTA,-0.112
7,ATTAGAAG,0.117
8,CAACAGAA,-0.113
9,CTAAATGC,-0.128
10,GGGGGAAA,-0.197
11,AAAGGGAA,-0.0827
12,CAGTATAC,0.153
13,AACGAATG,0.216
14,CGGGGTTC,0.0227
15,CAAATACG,-0.0443
16,ATTCAGCA,0.0155
17,CTTTTCAA,-0.0189
18,GGAGCCCC,-0.284
19,CAAAGAGC,-0.181
20,GAAAATAC,-0.00515
21,TGCCCCAA,0.119
22,CGTAGACA,-0.125
23,GAGGTTAC,-0.123
24,CCTTGTGC,-0.202
25,CGCCGAGC,0.0626

row,Sequence,PBM E-score
1,CCGTAAAG,0.0383
2,AAATCATG,0.0935
3,CTGGTGGA,-0.265
4,GGCGCCCA,0.173
5,CGGTGGAC,0.0182
6,CCTCCTCC,-0.283
7,GATGTGAC,-0.141
8,GATCGATC,0.108
9,CACTCGAG,0.00134
10,GACATGGA,0.045
11,CCTGGAGA,0.0343
12,CCCTGGGA,0.0906
13,CAACTACA,0.0605
14,ATGTACCA,-0.224
15,GCCAGCCA,-0.014
16,AGCAGCCA,0.0226
17,TAATGTAA,0.0569
18,AGAAACCC,-0.0102
19,CCCTGAAG,0.208
20,GACTTGAA,-0.0965
21,ACCCGCGG,0.275
22,CTCTCCTC,-0.285
23,CGTTCTAC,-0.147
24,AGAAAGCC,-0.0236
25,AAAGGGAT,0.0813

row,Sequence,PBM E-score
1,AGCCTCGA,-0.0885
2,GCTTACAA,-0.124
3,AGTCACCG,-0.116
4,TACCCGCA,0.167
5,CAATGGAG,-0.17
6,CAAGAAAA,0.0468
7,CTCGGGCA,0.0229
8,ATGACTCC,-0.0893
9,CGAGCCGA,-0.0924
10,AGACCATA,0.0148
11,CTTAGTGA,0.0599
12,GGTACCCA,-0.213
13,AAGGGCCG,-0.0822
14,AACATGCC,-0.131
15,ATTACCAA,0.0553
16,CCGCTACA,-0.0582
17,GCAAGTCC,-0.0298
18,CCGTCGCC,-0.0104
19,ACGGACTA,-0.0283
20,GGTGAATA,0.104
21,AAACAGAC,0.176
22,ATCTGATC,0.14
23,CGCTTAAG,-0.0535
24,TAACCGAA,-0.0477
25,AACGTTCA,-0.276

row,Sequence,PBM E-score
1,GGTAGGAA,-0.0697
2,ATCAAAAT,-0.0176
3,CATGCGTA,0.0188
4,AGGGCATC,-0.0906
5,AATACTAA,0.141
6,TGCACGCA,-0.0547
7,CCAAGAAA,0.0483
8,CATCCAGG,0.155
9,GGAACCAC,-0.0415
10,AAGCCGGC,0.0653
11,AGCGTATA,0.0997
12,CACTATAA,-0.139
13,ATATACTC,0.0973
14,AGCAATTG,0.176
15,ACGCAGCT,0.0108
16,GCGGTCTA,0.182
17,CCAAGGTC,-0.114
18,CGTGGTAG,-0.094
19,AAATCCGA,-0.0184
20,GTGACCTA,-0.0873
21,CGCTGATC,0.0411
22,CCCCATAC,0.101
23,CCTTGTAC,-0.132
24,AGTTTTGG,0.154
25,AGCTCAGG,0.139

row,Sequence,PBM E-score
1,CACCTCCA,-0.219
2,CACGTGCG,-0.0842
3,TAACAACA,0.103
4,ATTAGCCG,-0.0599
5,CTTGTTGC,0.0274
6,ACCATAGC,-0.0536
7,AAAAATTC,0.162
8,ACACGTTA,-0.135
9,AAAAGCAC,-0.181
10,CATGGGTA,-0.074
11,ATAATCAG,0.0745
12,CGTATGAC,-0.213
13,GTCTGGTA,-0.00183
14,GAGGACCC,0.174
15,TCTACCCA,-0.0386
16,GGCTCGAA,0.0374
17,GATGAAGC,-0.0335
18,AAGCCTGC,-0.0818
19,CCGCTGTC,-0.00919
20,CACGTAAG,-0.171
21,AAATACTA,0.00839
22,AAATTTGC,0.076
23,CCAGCAAA,0.132
24,TATACCGA,0.0393
25,ATTGACAA,-0.0343

# In a second layout: results already given.
row	Sequence	PBM E-score
18	AAGCCTGC	-0.0818
19	CCGCTGTC	-0.00919
20	CACGTAAG	-0.171
21	AAATACTA	0.00839
22	AAATTTGC	0.076
23	CCAGCAAA	0.132

# Next part

row,Sequence,PBM E-score
1,CAATAGGG,0.149
2,ATAGCTGG,0.015
3,AGGGGCGG,0.164
4,ACCTAGCG,-0.0328
5,ACATTGTC,0.187
6,AAACCCAC,0.218
7,CGAGTCCC,-0.0143
8,GTTTAAGA,-0.156
9,ACAATTGA,0.113
10,ACGCAGAA,0.125
11,ACCGCAGC,-0.0437
12,AGTTTGAA,0.23
13,CTCTCAGC,-0.152
14,CCCGCTCG,-0.0307
15,CCACGGGC,-0.139
16,AGATTAAC,-0.0245
17,ATACCAGG,-0.0211
18,CAATGATC,-0.124
19,ATTGGACA,0.163
20,ATAGTACG,0.134
21,CATCGATG,0.0612
22,AAGCCAAG,0.00278
23,CTGCGACA,0.104
24,GGGCTACC,-0.183
25,CACACGGA,-0.0956

# Reprinted at random: seven records from the list.
row,Sequence,PBM E-score
21,AAACAGAC,0.176
19,CCCTGAAG,0.208
11,ACCGCAGC,-0.0437
24,GGGCTACC,-0.183
14,ATGTACCA,-0.224
23,CCTTGTAC,-0.132
9,AAAAGCAC,-0.181

# Later entries:

row,Sequence,PBM E-score
1,CACTAATA,0.133
2,AGACACCT,-0.0721
3,AGCATGCA,0.00231
4,AGCTCTAA,0.0849
5,CTCAAGAG,-0.217
6,CCTTACCG,-0.0752
7,ATATTGTA,0.0677
8,ATGTAGAC,-0.175
9,TAGGATGA,0.0549
10,GTATTGTA,0.192
11,ATAGTTAG,0.177
12,AAGCACTA,0.0443
13,TATTGGCA,0.134
14,CACTAGGA,-0.0863
15,GCTCCTTA,-0.0501
16,AACTACGA,0.077
17,TCGCCCCA,0.113
18,GGAGCGCC,-0.232
19,CCTCCGAC,-0.285
20,CCACTACC,-0.145
21,CTAACACA,0.161
22,CCCGAGCC,-0.119
